Percent effect of library compounds

Measurements from “University of Dundee, Small-Polar-MMV Screening Library” (2021), ChEMBL document CHEMBL3988442.

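Assay of Toxoplasma gondii numbers, read through their beta-galactosidase reporter with a colour substrate. Concentration: 10 µM. Higher reads as fewer parasites (inferred from which compounds were picked for retests). About 67,000 compounds were tested under these conditions; 0.38% (about 260) showed 50% or more at least once.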

Each number is a percent effect as filed. How 0% and 100% were set is not recorded. Most values in the screen are low, and negative values occur. Compounds were drawn at random from those tested, without regard to their results.

CN1CCN(C2CCN(CCOc3ccccc3)CC2)C1=O read 9.724%.
Cc1cc(C)n(C2CCCN(C(=O)c3cccc4c3OCO4)C2)n1 (stereo not shown) read -20.98%.
Cc1cn2c(n1)CCC(NC(=O)CCCOCc1ccccc1)C2 (stereo not shown) read -41.51%.
Cc1ccc(C2CSCCN2C(=O)NCc2cccnc2)cc1 (stereo not shown) read 4.656%.
Fc1ccc(OCCNC2CCN(Cc3ccccn3)CC2)c(F)c1 read 5.699%.
O=C(C1CCCC1)N1CCC(C(O)c2ccc(F)cc2)CC1 (stereo not shown) read 1.685%.
CCN1CCN(c2ncc3c(=O)n(Cc4ccco4)ccc3n2)CC1 read -0.1218%.
[H][C@]12CC[C@]([H])(CN(C(=O)Cc3cnc(C)[nH]c3=O)C1)N(CC1CCC1)C2 read 0.8696%.
CNC(=O)CN1CCC2(CCCN(CC3CCOC3)C2)CC1.O=C(O)C(F)(F)F.O=C(O)C(F)(F)F (stereo not shown) read -24.81%.
CCOC(=O)c1nc(CC(=O)Nc2ccccc2)no1 read -2.386%.
O=C(C1CCOC1)N1CCC(Cn2cc(-c3ccsc3)nn2)CC1 (stereo not shown) read -2.609%.
Cc1cc(C)n(-c2nc(C(=O)NCCN3CCC(C)CC3)cs2)n1 read 1.292%.
CNc1ccccc1C(=O)N(C)CCc1ccccc1 read -6.698%.
O=C(CC1CC1)N(Cc1cccnc1)CC1CCN(C2CCCC2)CC1 read 1.834%.
CCn1ccc2ccnc(CC3CN(C(=O)c4cnco4)C3)c21 read 8.85%.
O=C1CC2(CCN(CCCO)CC2)CN1Cc1ccc(F)c(F)c1 read 8.782%.
O=C(CN1CCNCC1)N1CC[C@@H](c2ccc3ccccc3c2)[C@H](O)C1 read -4.515%.
CCc1ccc(CN2Cc3nccn3CC(Cn3cncn3)C2)o1.O=C(O)C(F)(F)F (stereo not shown) read -2.545%.
CCCn1ncc(CN2CCCC(C(=O)c3ccc(Cl)cc3C)C2)c1C (stereo not shown) read -10.73%.
CN(C)c1cc(C2CCCN(S(=O)(=O)c3cn[nH]c3)C2)ccn1 (stereo not shown) read -19.73%.
CC(Cn1cccn1)NS(=O)(=O)Cc1ccccc1 (stereo not shown) read -2.185%.
O=C(CN1C=Nc2ccccc2S1(=O)=O)NC1CCCCC1 read 6.043%.
CCN(Cc1cccc2c1OCO2)C(=O)NCc1ccccn1 read 8.114%.
Cc1cc2c(c(=O)n1CCC(=O)O)C=CC(C)(C)O2 read 7.121%.
Cc1nc(CCNC(=O)NC2CCCN(c3ncccn3)C2)cs1 (stereo not shown) read -31.27%.
Nc1ncncc1-c1noc([C@@H]2CCCN2CCCc2ccccc2)n1 read -5.649%.
Cc1ccc(CNC(=O)c2ccc(=O)n(C)n2)c(OCC2CC2)c1 read 10.6%.
Cc1nc2c(c(C)c1CC(=O)NCc1cccs1)c(=O)[nH]n2C read -7.763%.
CC(C)c1cncnc1N1CC[C@H](N2CCOCC2)[C@H](CCCO)C1 read -4.1%.
[H][C@@]12CN(C(=O)C3CCOCC3)C[C@@]1([H])N(CC1CC1)C(=O)CO2 read -0.269%.
CC(Oc1ccccc1C(F)(F)F)C(=O)NCC(N)=O (stereo not shown) read -3.165%.
CCc1nc(NC(=O)N(C)Cc2ccoc2)nn1C read 4.578%.
CCN(Cc1ccoc1)C(=O)c1cc(S(N)(=O)=O)c(C)o1 read -11.93%.
O=c1[nH]c(CN(Cc2ccco2)C2CCCC2)nc2ccccc12 read 2.435%.
O=C(Cc1ccc2c(c1)CCO2)N1CCN(c2ccncc2)CC1 read 3.35%.
CN1CCCN(C(=O)NCc2ccccc2Cn2cncn2)CC1 read 0.4023%.
[H][C@@]12CCN(C(=O)Cc3ccc(C)cc3)C[C@]1(COC)CCO2 read -13.24%.
COc1ccc(CC(=O)NC2(C#N)CCOCC2)c(Cl)c1 read 0.1218%.
N#Cc1cc(F)ccc1Cn1cnc(C2CCC2)cc1=O read -4.548%.
CC(=O)NCCc1ccc(S(=O)(=O)Nc2cc(F)ccc2C)s1 read 3.05%.
[H][C@@]12CCN(C(=O)CC(C)(C)C)[C@]1([H])C(=O)N(Cc1ccccc1)C(=O)N2 read 16.29%.
CCOC(=O)[C@@H]1[C@@H](O)C(=O)N(C)C12CCN(C(=O)OC)CC2 read -22.69%.
Cc1cc(S(=O)(=O)NCC(C)(C)N)c(F)cc1F.Cl read -13.65%.
COCCNC(=O)Cc1cnc(-n2cccc2)s1 read -2.622%.
OCCn1nccc1C1CCN(Cc2nc(C3CC3)no2)CC1 read 4.237%.
O=C(c1ccc[nH]1)N1CCOCC12CCCC2 read 21.6%.
[H][C@@]12CN(CC(=O)N(C)C)C[C@]1([H])OCCN2c1ncc(F)cn1 read 4.827%.
COc1cc(CNC(=O)Nc2nnc(C(F)(F)F)s2)ccc1O read 21.98%.
O=C1CCC(C(=O)N2CCOC(Cc3ccccc3Cl)C2)=NN1 (stereo not shown) read 3.461%.
CN(C)CC(=O)N1CCOCC2(C1)CN(c1ccccc1)C(=O)CO2 (stereo not shown) read -1.068%.

4 of the entries, repeated:

SMILES,effect
CCN(Cc1ccoc1)C(=O)c1cc(S(N)(=O)=O)c(C)o1,-11.93
CN(C)CC(=O)N1CCOCC2(C1)CN(c1ccccc1)C(=O)CO2 (stereo not shown),-1.068
O=C(C1CCOC1)N1CCC(Cn2cc(-c3ccsc3)nn2)CC1 (stereo not shown),-2.609
CC(Oc1ccccc1C(F)(F)F)C(=O)NCC(N)=O (stereo not shown),-3.165